The source of these data is the supplement of paper PMC4749390.

Counter-ions that a name gives are not always drawn. The list shows a part of the results. Single values are uncertain here, since repeats match poorly.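 Wild-type human LRH-1, a heavily sumoylated nuclear receptor, is tetracycline-inducible in stable JEG3 cells. RT-qPCR measured SUMO-sensitive APOC3 and MUC1 transcripts, which rise with SUMO-less LRH-1 or UBC9 knockdown, versus TBP and DMSO controls. Robust Z-scores beyond ±2 flagged primary hits, followed by toxicity and TBP filtering.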

This test relates to JEG3 expressing hLRH-1. Briefly: APOC3 transcript change (ddCt vs TBP and DMSO), Z-score over library; higher = higher APOC3 expression. Conditions: 10 µM; time (hr): 24.
For `CCCc1nn(C)c2c(O)nc(-c3cc(S(=O)(=O)N4CCN(C)CC4)ccc3OCC)nc12` [sildenafil], the “APOC3 transcript change (Z-score)” value turned out to be 1.02.

As to `Oc1c(I)cc(I)c2cccnc12` [iodoquinol], the “APOC3 transcript change (Z-score)” value was 0.4.

In the case of `Cc1cccc(C)c1NC(=O)C1CCCCN1C` (stereo not drawn) [mepivacaine hydrochloride], the “APOC3 transcript change (Z-score)” value stood at 0.0889.

Regarding `COc1cc(C(=O)NCCCCCC(=O)O)cc(OC)c1OC` [capobenic acid], the “APOC3 transcript change (Z-score)” value was -0.0679.

On to `O=C(NCCCN1CCOCC1)c1ccc(Cl)cc1` [eprobemide], for which the “APOC3 transcript change (Z-score)” value is -0.365.

For the compound `CCCCCC(C)N` (stereo not drawn) [tuaminoheptane sulfate], the “APOC3 transcript change (Z-score)” value was -0.15.

For the compound `Nc1ccc(S(=O)(=O)O)cc1` [sulfanilate zinc], the “APOC3 transcript change (Z-score)” value is -1.44.

On to `O=C(Oc1ccccc1C(=O)O)c1ccccc1O` [salsalate], for which the “APOC3 transcript change (Z-score)” value worked out at 0.622.

As to `Cc1ncc([N+](=O)[O-])n1CCO` [metronidazole], the “APOC3 transcript change (Z-score)” value is -0.556.

Regarding `CCOC(=O)[C@H](CCc1ccccc1)N[C@@H](C)C(=O)N1CCC[C@H]1C(=O)O` [enalapril maleate], the “APOC3 transcript change (Z-score)” value turned out to be 1.15.

As for `C[N+](C)(C)CCOC(N)=O` [Carbachol], the “APOC3 transcript change (Z-score)” value is 1.02.

With `O=c1[nH]c(=O)n([C@H]2C[C@H](O)C(CO)O2)cc1I` (stereo partly drawn) [idoxuridine], the “APOC3 transcript change (Z-score)” value was 5.13.

Turning to `CC(=O)OC/C=C(C)/C=C/C=C(C)/C=C/C1=C(C)CCCC1(C)C` [retinyl acetate], the “APOC3 transcript change (Z-score)” value was determined as 0.17.

`NC[C@H]1O[C@H](O[C@H]2[C@H](O[C@@H]3O[C@H](CO)[C@@H](O)[C@H]3O)[C@@H](O)[C@H](N)C[C@@H]2N)[C@H](N)[C@@H](O)[C@@H]1O` [ribostamycin sulfate]: the “APOC3 transcript change (Z-score)” value is -0.317.

Consider `C=CC[C@@H]1/C=C(\C)C[C@H](C)C[C@H](OC)[C@H]2O[C@@](O)(C(=O)C(=O)N3CCCC[C@H]3C(=O)O[C@H](/C(C)=C/[C@@H]3CC[C@@H](O)[C@H](OC)C3)[C@H](C)[C@@H](O)CC1=O)[C@H](C)C[C@@H]2OC` [tacrolimus], for which the “APOC3 transcript change (Z-score)” value is 1.12.

With `NC[C@@H]1CC[C@@H](N)[C@@H](O[C@H]2[C@H](O)[C@@H](O[C@H]3O[C@H](CO)[C@@H](O)[C@H](N)[C@H]3O)[C@H](N)C[C@@H]2N)O1` [dibekacin], the “APOC3 transcript change (Z-score)” value amounted to 0.345.

With `O=S(=O)(O)CCS` [mesna], the “APOC3 transcript change (Z-score)” value is -0.872.

With `CC(C)NCC(O)COc1ccc(COCCOC(C)C)cc1` (stereo not drawn) [bisoprolol fumarate], the “APOC3 transcript change (Z-score)” value was -0.725.

For the compound `CC(C)(Oc1ccc(C(=O)c2ccc(Cl)cc2)cc1)C(=O)O` [fenofibric acid], the “APOC3 transcript change (Z-score)” value was -0.342.

As for `Nc1nc(Cl)nc2c1ncn2[C@@H]1O[C@H](CO)[C@@H](O)[C@@H]1F` [clofarabine], the “APOC3 transcript change (Z-score)” value was found to be 4.26.

With `Nc1nc(N)nc(-c2cc(Cl)ccc2Cl)n1` [irsogladine maleate], the “APOC3 transcript change (Z-score)” value was -0.179.

Turning to `CCOc1cc(NC(C)=O)ccc1C(=O)OC` [ethopabate], the “APOC3 transcript change (Z-score)” value stood at 0.327.

In the case of `OC[C@H]1O[C@@H](n2cnc3c(O)ncnc32)[C@H](O)[C@@H]1O` [inosine], the “APOC3 transcript change (Z-score)” value was -0.153.

Consider `CS(=O)(=O)c1ccc([C@@H](O)[C@@H](CO)NC(=O)C(Cl)Cl)cc1` [thiamphenicol], for which the “APOC3 transcript change (Z-score)” value was -0.143.

On to `Cn1cnc2c1c(=O)[nH]c(=O)n2C` [Theobromine], for which the “APOC3 transcript change (Z-score)” value was -0.546.

Turning to `O=C(O)CCCCC(=O)O` [adipic acid], the “APOC3 transcript change (Z-score)” value is -0.2.

`CC1CCc2c(N3CCC(O)CC3)c(F)cc3c(=O)c(C(=O)O)cn1c23` (stereo not drawn) [nadifloxacin]: the “APOC3 transcript change (Z-score)” value was -1.06.

As to `Cc1c(C)c2c(c(C)c1O)CCC(C)(CCCC(C)CCCC(C)CCCC(C)C)O2` (stereo not drawn) [alpha-tochopherol], the “APOC3 transcript change (Z-score)” value was -0.499.

Consider `COc1ccc(CN(CCN(C)C)c2ccccn2)cc1` [Pyrilamine maleate], for which the “APOC3 transcript change (Z-score)” value was -0.505.

Take `CCCNC(C)C(=O)Nc1ccccc1C` (stereo not drawn) [prilocaine hydrochloride]: the “APOC3 transcript change (Z-score)” value is -0.0247.

Consider `CCn1cc(C(=O)O)c(=O)c2ccc(C)nc21` [nalidixic acid], for which the “APOC3 transcript change (Z-score)” value is -0.0319.

For the compound `CNCCC=C1c2ccccc2CCc2ccccc21` [Nortriptyline hydrochloride], the “APOC3 transcript change (Z-score)” value came to 2.53.

In the case of `C=CCc1ccc(O)c(OC)c1` [eugenol], the “APOC3 transcript change (Z-score)” value was -0.896.

`CCN1C(=O)NC(c2ccccc2)C1=O` (stereo not drawn) [ethotoin]: the “APOC3 transcript change (Z-score)” value came to 0.359.

As for `CN1C(C(=O)Nc2ccccn2)=C(O)c2sc(Cl)cc2S1(=O)=O` [lornoxicam], the “APOC3 transcript change (Z-score)” value was -0.205.

On to `CCCCCCCCCCCCCCCC[N+](C)(C)CCN(Cc1ccc(OC)cc1)c1ncccn1` [thonzonium bromide], for which the “APOC3 transcript change (Z-score)” value is 0.604.

Take `C[C@]12CCC(=O)C=C1CC[C@@H]1[C@@H]2[C@@H](O)C[C@@]2(C)[C@H]1CC[C@]2(O)C(=O)COC(=O)CCC(=O)O` [hydrocortisone hemisuccinate]: the “APOC3 transcript change (Z-score)” value is -0.147.

As for `CC(C)(C)NC[C@H](O)COc1nsnc1N1CCOCC1` [timolol maleate], the “APOC3 transcript change (Z-score)” value was -0.498.

Consider `Cc1c(OCC(F)(F)F)ccnc1C[S@@](=O)c1nc2ccccc2[nH]1` [dexlansoprazole], for which the “APOC3 transcript change (Z-score)” value was determined as 0.295.

With `C=CCOC(Cn1ccnc1)c1ccc(Cl)cc1Cl` (stereo not drawn) [enilconazole], the “APOC3 transcript change (Z-score)” value turned out to be 0.0609.

With `OC(c1cc(C(F)(F)F)nc2c(C(F)(F)F)cccc12)C1CCCCN1` (stereo not drawn) [mefloquine], the “APOC3 transcript change (Z-score)” value amounted to 0.826.

`CSCC[C@H](NC(=O)[C@H](Cc1c[nH]c2ccccc12)NC(=O)[C@H](C)NC(=O)OC(C)(C)C)C(=O)N[C@@H](CC(=O)O)C(=O)N[C@@H](Cc1ccccc1)C(N)=O` [pentagastrin]: the “APOC3 transcript change (Z-score)” value was determined as 0.962.

In the case of `CN1C(CC(=O)c2ccccc2)CCCC1CC(O)c1ccccc1` (stereo not drawn) [lobeline hydrochloride], the “APOC3 transcript change (Z-score)” value is -0.478.

For `CC(=O)N[C@@H](CCC(N)=O)C(=O)O` [aceglutamide], the “APOC3 transcript change (Z-score)” value is 2.66.

As to `CCOC(=O)OC(C)OC(=O)[C@@H]1N2C(=O)[C@@H](NC(=O)[C@H](N)c3ccccc3)[C@H]2SC1(C)C` (stereo partly drawn) [bacampicillin hydrochloride], the “APOC3 transcript change (Z-score)” value is -0.721.

Consider `CC(C)[C@H](N)C(=O)OCCOCn1cnc2c(O)nc(N)nc21` [valacyclovir hydrochloride], for which the “APOC3 transcript change (Z-score)” value is -0.0621.

As to `Nc1ncn([C@@H]2O[C@H](CO)[C@@H](O)[C@H]2O)c(=O)n1` [5-azacytidine], the “APOC3 transcript change (Z-score)” value was -2.05.

On to `CCC(C)[C@H]1O[C@]2(CC[C@@H]1C)C[C@@H]1C[C@@H](C/C=C(\C)[C@@H](OC3C[C@H](OC)C(O[C@H]4C[C@H](OC)[C@@H](O)[C@H](C)O4)[C@H](C)O3)[C@@H](C)/C=C/C=C3\CO[C@@H]4[C@H](O)C(C)=C[C@@H](C(=O)O1)[C@]34O)O2` (stereo partly drawn) [ivermectin], for which the “APOC3 transcript change (Z-score)” value was 1.32.
